Results deposited as PubChem BioAssay AID504791 (Drosophila RNAi Screening Center, 2011).
The screen tested about 23,000 reagents; this is an unselected part of those that have a named target and a result. Over the whole deposit, 199 (0.86%) got an active call. 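Plate-scaled ratios behind the calls are not deposited; printed light signals are raw; many rows marked increased or decreased are still called inactive.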 Names joined by + are all predicted targets of the reagent. The record does not give: the direction of the score.

Aim: 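Genes whose knock-down strengthens or weakens small-RNA reporter silencing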 (primary screen)
Cells: Drosophila S2-derived reporter cells
Reagents: long dsRNA against Drosophila genes, about 150-250 ng dsRNA per well (siRNA assay); about 80-120 ng (miRNA assay)
Duration: about 5 days (siRNA assay); about 4 days (miRNA assay)
Challenge: copper sulfate induction of reporters: 25 µM (siRNA assay); 200 mM stated (miRNA assay), 1-2 days before reading
Read-out: 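Per-well ratio of Renilla over firefly light, expressed relative to that plate's average ratio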
Active means: 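a well was a first-pass pick when its plate-scaled ratio rose above 1.5 (siRNA assay) or 1.6 (miRNA assay), or dropped below 0.6; a gene counted only if two separate dsRNAs agreed on retest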

| gene | DRSC id | stable siRNA reporter change | miRNA reporter change | stable assay Renilla, run 1 (luminescence) | stable assay firefly, run 1 (luminescence) | Outcome |
| --- | --- | --- | --- | --- | --- | --- |
| ncd | DRSC17012 | – | – | 7460 | 4.39e5 | inactive |
| Nnk | DRSC15274 | – | – | 7672 | 3.49e5 | inactive |
| CG12560 | DRSC02174 | – | – | 7760 | 4.46e5 | inactive |
| PPO3 | DRSC04325 | – | – | 1.33e5 | 4.40e5 | inactive |
| Agps | DRSC05984 | – | – | 5906 | 3.10e5 | inactive |
| GCS2alpha | DRSC21036 | – | – | 5423 | 4.14e5 | inactive |
| mRpL50 | DRSC11015 | – | – | 3252 | 4.27e5 | inactive |
| CG6785 | DRSC02993 | – | – | 9098 | 4.61e5 | inactive |
| CG31007 | DRSC14029 | – | – | 6583 | 2.87e5 | inactive |
| CG11370 | DRSC11653 | – | – | 8944 | 3.93e5 | inactive |
| Fst | DRSC16491 | – | – | 8337 | 5.60e5 | inactive |
| pyr | DRSC06319 | – | – | 4696 | 3.28e5 | inactive |
| pyr | DRSC22520 | – | – | 5682 | 5.51e5 | inactive |
| Arpc3A | DRSC15596 | – | – | 7483 | 4.03e5 | inactive |
| Cpsf5 | DRSC10374 | reporter ratio raised past the hit cutoff | reporter ratio raised past the hit cutoff | 21206 | 4.59e5 | inactive |
| CG15594 | DRSC12280 | – | – | 6659 | 4.40e5 | inactive |
| CG2258 | DRSC18222 | – | – | 7035 | 4.45e5 | inactive |
| Ir87a | DRSC14836 | – | – | 6136 | 2.97e5 | inactive |
| Sse | DRSC09746 | – | – | 8668 | 5.69e5 | inactive |
| MetRS | DRSC22533 | reporter ratio raised past the hit cutoff | – | 8696 | 2.74e5 | inactive |
| mtDNA-helicase | DRSC02912 | – | – | 7542 | 3.88e5 | inactive |
| slp2 | DRSC00836 | – | – | 6948 | 3.47e5 | inactive |
| AstC | DRSC02403 | – | – | 6942 | 2.71e5 | inactive |
| Idua | DRSC02941 | – | – | 5683 | 5.53e5 | inactive |
| CG31253 + CG31131 | DRSC13839 | – | – | 6534 | 4.73e5 | inactive |
| unc | DRSC20511 | – | – | 6055 | 4.71e5 | inactive |
| Cdc14 | DRSC03013 | – | – | 6490 | 3.97e5 | inactive |
| CG2147 | DRSC18211 | – | – | 7894 | 5.70e5 | inactive |
| Vps24 | DRSC12332 | – | – | 5198 | 4.22e5 | inactive |
| epsilonCOP | DRSC02003 | – | – | 9845 | 1.34e6 | inactive |
| CG12112 | DRSC17809 | – | – | 6814 | 5.41e5 | inactive |

11 of these entries, reformatted:
{"gene": "mtDNA-helicase", "DRSC id": "DRSC02912", "stable assay Renilla, run 1 (luminescence)": 7542, "stable assay firefly, run 1 (luminescence)": 3.88e5, "Outcome": "inactive"}
{"gene": "slp2", "DRSC id": "DRSC00836", "stable assay Renilla, run 1 (luminescence)": 6948, "stable assay firefly, run 1 (luminescence)": 3.47e5, "Outcome": "inactive"}
{"gene": "AstC", "DRSC id": "DRSC02403", "stable assay Renilla, run 1 (luminescence)": 6942, "stable assay firefly, run 1 (luminescence)": 2.71e5, "Outcome": "inactive"}
{"gene": "Idua", "DRSC id": "DRSC02941", "stable assay Renilla, run 1 (luminescence)": 5683, "stable assay firefly, run 1 (luminescence)": 5.53e5, "Outcome": "inactive"}
{"gene": "CG31253 + CG31131", "DRSC id": "DRSC13839", "stable assay Renilla, run 1 (luminescence)": 6534, "stable assay firefly, run 1 (luminescence)": 4.73e5, "Outcome": "inactive"}
{"gene": "unc", "DRSC id": "DRSC20511", "stable assay Renilla, run 1 (luminescence)": 6055, "stable assay firefly, run 1 (luminescence)": 4.71e5, "Outcome": "inactive"}
{"gene": "Cdc14", "DRSC id": "DRSC03013", "stable assay Renilla, run 1 (luminescence)": 6490, "stable assay firefly, run 1 (luminescence)": 3.97e5, "Outcome": "inactive"}
{"gene": "CG2147", "DRSC id": "DRSC18211", "stable assay Renilla, run 1 (luminescence)": 7894, "stable assay firefly, run 1 (luminescence)": 5.70e5, "Outcome": "inactive"}
{"gene": "Vps24", "DRSC id": "DRSC12332", "stable assay Renilla, run 1 (luminescence)": 5198, "stable assay firefly, run 1 (luminescence)": 4.22e5, "Outcome": "inactive"}
{"gene": "epsilonCOP", "DRSC id": "DRSC02003", "stable assay Renilla, run 1 (luminescence)": 9845, "stable assay firefly, run 1 (luminescence)": 1.34e6, "Outcome": "inactive"}
{"gene": "CG12112", "DRSC id": "DRSC17809", "stable assay Renilla, run 1 (luminescence)": 6814, "stable assay firefly, run 1 (luminescence)": 5.41e5, "Outcome": "inactive"}

The results go on.
| gene | DRSC id | stable siRNA reporter change | miRNA reporter change | stable assay Renilla, run 1 (luminescence) | stable assay firefly, run 1 (luminescence) | Outcome |
| --- | --- | --- | --- | --- | --- | --- |
| CG34002 | DRSC09512 | – | – | 7471 | 5.23e5 | inactive |
| CG34002 | DRSC11953 | – | – | 5634 | 5.38e5 | inactive |
| CG33095 | DRSC14441 | – | – | 7531 | 4.43e5 | inactive |
| mAChR-B | DRSC16345 | – | – | 6543 | 3.01e5 | inactive |
| Cad74A | DRSC10636 | – | – | 8684 | 3.47e5 | inactive |
| Liprin-gamma | DRSC04093 | – | – | 2948 | 3.05e5 | inactive |
| CG4267 | DRSC00647 | – | – | 8363 | 3.76e5 | inactive |
| MFS10 | DRSC19888 | – | – | 7839 | 4.53e5 | inactive |
| CG8891 | DRSC03120 | – | – | 6727 | 3.98e5 | inactive |
| Ccp84Aa | DRSC12586 | – | – | 7683 | 3.93e5 | inactive |
| hubl | DRSC06825 | – | – | 6438 | 3.39e5 | inactive |
| Gbeta13F | DRSC20247 | – | – | 8236 | 3.63e5 | inactive |
| Cpr | DRSC03293 | – | – | 10846 | 8.78e5 | inactive |
| Srp19 | DRSC11288 | – | – | 7481 | 5.25e5 | inactive |
| CG14823 | DRSC10194 | – | – | 8546 | 4.13e5 | inactive |
| CG15657 | DRSC04248 | – | – | 6703 | 4.82e5 | inactive |
| CG15673 | DRSC04263 | – | – | 7843 | 5.20e5 | inactive |
| Ype | DRSC20301 | – | – | 7811 | 4.84e5 | inactive |
| CG11842 | DRSC14400 | – | – | 9118 | 6.07e5 | inactive |
| CG15293 | DRSC01919 | – | – | 7418 | 4.18e5 | inactive |
| IleRS | DRSC11667 | – | – | 9785 | 3.65e5 | inactive |
| sp3 | DRSC16354 | – | – | 6683 | 3.21e5 | inactive |
| cta | DRSC03769 | – | – | 32410 | 4.06e5 | inactive |
| Plap | DRSC00678 | – | – | 13536 | 4.50e5 | inactive |
| brat | DRSC03497 | – | – | 18421 | 1.25e6 | inactive |
| CG17198 + CG17197 | DRSC15190 | – | – | 7878 | 3.85e5 | inactive |
| CG17198 + CG17197 | DRSC15191 | – | – | 7850 | 4.72e5 | inactive |
| Or98a | DRSC16774 | – | – | 6083 | 3.77e5 | inactive |
| EDTP | DRSC07409 | – | – | 7724 | 3.93e5 | inactive |
| CG10338 | DRSC02039 | – | – | 7598 | 6.41e5 | inactive |
| CG15107 | DRSC06534 | – | – | 7220 | 3.16e5 | inactive |
| CG6304 | DRSC02948 | – | – | 12134 | 2.61e6 | inactive |
| Alp12 | DRSC02515 | – | – | 6582 | 4.74e5 | inactive |
| Flacc | DRSC20040 | – | – | 8658 | 3.53e5 | inactive |
| Mgat2 | DRSC16347 | – | – | 8637 | 4.27e5 | inactive |
| CG42827 + CG42828 | DRSC16116 | – | – | 3435 | 3.99e5 | inactive |
| CG6168 | DRSC10596 | – | – | 6671 | 3.64e5 | inactive |
| Obp50b + Obp50c | DRSC21818 | – | – | 9302 | 5.65e5 | inactive |
| Alp6 | DRSC06710 | – | – | 7871 | 4.09e5 | inactive |
| Mst57Dc | DRSC16745 | – | – | 7932 | 3.93e5 | inactive |
| CG4554 | DRSC04473 | – | – | 89502 | 5.65e5 | inactive |
| CG31642 | DRSC02919 | – | – | 21109 | 5.62e5 | inactive |
| Keap1 | DRSC15528 | – | – | 9409 | 3.43e5 | inactive |
| Teh1 | DRSC14544 | – | – | 6702 | 3.69e5 | inactive |
| CG6791 | DRSC16118 | reporter ratio raised past the hit cutoff | – | 13192 | 4.22e5 | inactive |
| CG17260 | DRSC00497 | – | – | 13639 | 2.13e5 | inactive |
| fd3F + CG42499 (retired record) | DRSC18160 | – | – | 6674 | 4.66e5 | inactive |
| fd3F + CG42499 (retired record) | DRSC18161 | – | – | 6643 | 4.71e5 | inactive |
| Pex19 | DRSC02839 | – | – | 12875 | 1.44e6 | inactive |
| per | DRSC18818 | – | – | 6122 | 3.48e5 | inactive |
| NSD | DRSC15691 | – | – | 6572 | 4.16e5 | inactive |
| CG11722 | DRSC14358 | – | – | 7918 | 5.94e5 | inactive |
